{"sequences": {"note": "Chains of the proteins cited; added tags and fusions are not shown. Residues count along the entry.", "UniProt P80188, residues 21-198": "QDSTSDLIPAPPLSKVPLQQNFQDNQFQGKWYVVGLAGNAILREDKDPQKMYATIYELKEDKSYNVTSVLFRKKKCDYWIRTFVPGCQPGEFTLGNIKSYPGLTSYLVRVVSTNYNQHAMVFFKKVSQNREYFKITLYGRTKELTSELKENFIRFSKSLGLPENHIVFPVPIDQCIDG"}, "source": "paper doi:10.1101/2024.11.15.623304", "test_in_all_cases": "co-IP", "key": {"[1]": {"biological_target": "LCN2-Flag (UniProt P80188)"}, "[2]": {"biological_target": "EGFR-Flag (UniProt P00533)"}, "[3]": {"biological_target": "endogenous LCN2 (human (endogenous in LOVO)) (UniProt P80188)"}}, "note": "Results are given in words; binding and its absence hold for the method and conditions named. Binding seen in cells or lysates may run through a third protein. Some binding calls cover weakened binding; strength is not graded here.", "data": [{"substance": "EGFR-Flag (from UniProt P00533 25-1210) (receptor)", "values": [{"measurement": "binding", "setting": "[1]", "result": "binds"}]}, {"substance": "LCN2-Flag (from UniProt P80188 21-198)", "values": [{"measurement": "binding", "setting": "[2]", "result": "binds"}]}, {"substance": "endogenous EGFR (from UniProt P00533 25-1210) (receptor)", "values": [{"measurement": "binding", "setting": "[3]", "result": "binds"}]}]}
